In publication PMC4381336:
No constants are given. Whether binding was seen depends on the method and setting. Binding seen in cells or lysates may run through a third protein. Some results given as binding are weak or reduced against the parent protein; the word gives no strength.

Molecular target: T1, p120-catenin (mouse (endogenous in mILC-1)) (UniProt P30999)
T1 sequence: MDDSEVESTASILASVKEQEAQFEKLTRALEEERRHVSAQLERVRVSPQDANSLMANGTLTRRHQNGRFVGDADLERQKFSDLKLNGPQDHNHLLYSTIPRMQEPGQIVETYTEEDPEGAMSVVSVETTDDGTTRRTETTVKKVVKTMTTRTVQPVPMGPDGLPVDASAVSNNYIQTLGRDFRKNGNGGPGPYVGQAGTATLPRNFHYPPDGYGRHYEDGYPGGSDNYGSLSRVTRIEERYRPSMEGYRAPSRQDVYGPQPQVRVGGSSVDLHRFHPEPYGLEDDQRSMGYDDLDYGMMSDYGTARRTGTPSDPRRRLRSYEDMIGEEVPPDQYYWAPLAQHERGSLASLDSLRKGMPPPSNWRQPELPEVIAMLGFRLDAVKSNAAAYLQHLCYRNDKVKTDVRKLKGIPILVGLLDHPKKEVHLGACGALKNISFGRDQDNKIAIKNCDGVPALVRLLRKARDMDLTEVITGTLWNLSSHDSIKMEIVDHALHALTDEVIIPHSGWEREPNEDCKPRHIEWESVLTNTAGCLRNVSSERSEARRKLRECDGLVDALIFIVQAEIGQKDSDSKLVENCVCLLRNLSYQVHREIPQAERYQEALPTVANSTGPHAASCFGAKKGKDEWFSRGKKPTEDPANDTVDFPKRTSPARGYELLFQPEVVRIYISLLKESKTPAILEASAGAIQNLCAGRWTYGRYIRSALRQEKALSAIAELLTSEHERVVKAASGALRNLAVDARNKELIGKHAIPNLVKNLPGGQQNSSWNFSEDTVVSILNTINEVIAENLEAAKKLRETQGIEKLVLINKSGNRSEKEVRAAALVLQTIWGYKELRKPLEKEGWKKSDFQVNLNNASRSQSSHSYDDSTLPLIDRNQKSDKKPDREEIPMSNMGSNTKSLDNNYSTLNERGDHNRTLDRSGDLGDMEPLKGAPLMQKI
Experiment: co-IP; p120 immunoprecipitated from mILC-1 lysate with mouse anti-p120 (BD Biosciences 610134) on Protein A/G agarose beads, 2 hours; lysis buffer 20 mM Tris-HCl pH 7.5, 150 mM NaCl, 1 mM EDTA, 1 mM EGTA, 1% Triton X-100, 5% glycerol; Kaiso detected by western blot; mouse IgG as control

binding: binds
B1: Kaiso (protein, UniProt Q8BN78 1-671)
chain: MESRKLISATDIQYSASLLNSLNEQRGHGLFCDVTVIVEDRKFRAHRNILSASSTYFHQLFSVAGQVVELSFIRAEIFAEILNYIYSSKVVRVRADLLDELIKSGQLLGVKFIAELGVPLSQVKSISGTEQDGTAETLPSSSSDKSLDMEKSKDEAQDNGATVMPIITESFSLSAEDNEMKKIIVTDSDDDDDDDVIFCSEILPAKEDLPSNNTATQVQPNPASVAISEVTPCASNNSPPVTNITPTQLPTPVNQATLSQTQGSEELLVSSASTHLTPNIILLNQAPLTAPPSASSSLPNHMSSSVNVLVQNQQTPNSAVLTGNKAEEEEEIIDDDDDIISSSPDSAVSNTSLVPQADNSKSTTLDGSLTQKMQIPVLPQEPPSNSLKISDVITRNTNDPGLRSKHVMEGQKIITLDTATEIEGLSTGCKVYANIGEDTYDIVIPVKDDPDGGEAKLDNELPKTSGSEPPNKRMKVKHDDHYELIVDGRVYYICIVCKRSYVCLTSLRRHFNIHSWEKKYQCRYCDKVFPLAEYRTKHEIHHTGERRYQCLTCGKSFINYQFMSSHIKSVHSQDPSGDSKLYRLHPCKSLQIRQYAYLSNKSSAMPVMKDDAVGYKVDAGKEPPVGTTSTPPQNKSTFWEDIFIQQENDSIFKQNVTDGSTEFEFIIPESY
